{
  "sequences": {"note": "Sequences of proteins named here, by UniProt entry; tags and fusion partners are left off. Residues count along the entry.", "UniProt P07333, residues 20-972": "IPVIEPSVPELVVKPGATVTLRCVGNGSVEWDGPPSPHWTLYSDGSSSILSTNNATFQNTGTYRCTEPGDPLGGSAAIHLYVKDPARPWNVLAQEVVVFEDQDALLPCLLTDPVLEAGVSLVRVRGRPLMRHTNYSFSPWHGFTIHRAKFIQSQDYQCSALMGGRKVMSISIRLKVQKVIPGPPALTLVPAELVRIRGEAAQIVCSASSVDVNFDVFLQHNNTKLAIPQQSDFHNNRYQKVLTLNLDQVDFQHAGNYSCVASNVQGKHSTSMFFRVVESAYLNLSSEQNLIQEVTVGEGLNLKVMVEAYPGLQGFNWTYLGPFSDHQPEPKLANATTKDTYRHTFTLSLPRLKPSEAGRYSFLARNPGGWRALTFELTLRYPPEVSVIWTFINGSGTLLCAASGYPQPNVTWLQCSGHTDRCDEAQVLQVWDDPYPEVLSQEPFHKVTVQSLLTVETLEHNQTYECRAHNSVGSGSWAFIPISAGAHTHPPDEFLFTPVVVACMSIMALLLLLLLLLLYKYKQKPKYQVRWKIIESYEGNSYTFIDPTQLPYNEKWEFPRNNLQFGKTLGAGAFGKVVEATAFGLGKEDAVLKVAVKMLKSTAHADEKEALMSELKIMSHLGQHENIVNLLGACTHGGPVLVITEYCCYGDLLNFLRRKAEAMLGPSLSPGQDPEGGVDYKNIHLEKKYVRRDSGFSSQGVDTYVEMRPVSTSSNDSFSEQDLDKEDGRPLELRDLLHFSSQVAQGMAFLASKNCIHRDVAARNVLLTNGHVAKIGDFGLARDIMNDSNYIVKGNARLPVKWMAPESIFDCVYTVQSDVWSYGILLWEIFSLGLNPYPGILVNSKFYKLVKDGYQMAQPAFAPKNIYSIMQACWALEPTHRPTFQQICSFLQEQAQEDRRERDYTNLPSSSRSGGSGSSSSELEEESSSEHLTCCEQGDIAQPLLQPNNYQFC", "UniProt P25490": "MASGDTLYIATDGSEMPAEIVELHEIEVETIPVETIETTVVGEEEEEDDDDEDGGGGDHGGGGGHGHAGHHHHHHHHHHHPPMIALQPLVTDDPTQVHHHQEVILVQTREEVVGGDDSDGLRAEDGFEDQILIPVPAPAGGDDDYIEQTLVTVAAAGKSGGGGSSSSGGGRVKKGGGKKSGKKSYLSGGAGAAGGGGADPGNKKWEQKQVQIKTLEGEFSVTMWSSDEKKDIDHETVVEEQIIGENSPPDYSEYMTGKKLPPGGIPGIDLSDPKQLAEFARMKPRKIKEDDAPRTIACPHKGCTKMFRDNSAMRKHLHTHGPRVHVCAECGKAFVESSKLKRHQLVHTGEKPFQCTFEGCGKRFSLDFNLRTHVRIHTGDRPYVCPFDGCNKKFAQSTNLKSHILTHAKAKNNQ"},
  "source": "paper PMC6486619",
  "key": {"[1]": {"target": "T1, ELK1 (human (endogenous in monocyte-derived macrophages)) (UniProt P19419)", "T1 sequence": "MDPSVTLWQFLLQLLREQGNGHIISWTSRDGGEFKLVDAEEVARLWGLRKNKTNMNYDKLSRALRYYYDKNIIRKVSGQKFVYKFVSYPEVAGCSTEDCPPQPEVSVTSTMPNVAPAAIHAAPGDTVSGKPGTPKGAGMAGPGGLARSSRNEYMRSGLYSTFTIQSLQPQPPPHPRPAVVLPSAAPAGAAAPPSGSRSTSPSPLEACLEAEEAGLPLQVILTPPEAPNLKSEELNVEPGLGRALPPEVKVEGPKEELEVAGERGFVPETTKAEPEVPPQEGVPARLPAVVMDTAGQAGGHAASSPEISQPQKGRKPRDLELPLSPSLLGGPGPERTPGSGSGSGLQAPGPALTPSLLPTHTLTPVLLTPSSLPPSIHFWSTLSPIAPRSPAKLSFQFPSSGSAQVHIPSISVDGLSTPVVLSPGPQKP", "assay": "co-IP; human monocytes treated for 3 days with 100 ng/mL CSF-1 (macrophages); IP with anti-ELK1 (sc-365876) or anti-CSF-1R (sc-365719) or control IgG, immunoblot for CSF-1R or YY1; lysis in 50 mM Tris pH 7.4, 150 mM NaCl, 1% NP-40, 10% glycerol"}, "[2]": {"target": "Colony-Stimulating Factor 1 Receptor (CSF-1R) (human (endogenous in primary monocytes)) (UniProt P07333)", "assay": "co-IP; human monocytes treated for 3 days with 100 ng/mL CSF-1 (macrophages); IP with anti-ELK1 (sc-365876) or anti-CSF-1R (sc-365719) or control IgG, immunoblot for CSF-1R or YY1; lysis in 50 mM Tris pH 7.4, 150 mM NaCl, 1% NP-40, 10% glycerol"}},
  "note": "No constants are given. Whether binding was seen depends on the method and setting. In cells and extracts the contact can be indirect. Some binding calls cover weakened binding; strength is not graded here.",
  "data": [
    {"substance": "Colony-Stimulating Factor 1 Receptor (CSF-1R) (from UniProt P07333 20-972)", "values": [
      {"measurement": "binding", "setting": "[1]", "result": "binds"}
    ]},
    {"substance": "YY1 (yin yang 1) (from UniProt P25490 1-414)", "values": [
      {"measurement": "binding", "setting": "[2]", "result": "binds"}
    ]}
  ]
}
